PubChem BioAssay AID1224830, NIAID, 2016

Screen: 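Genes whose knock-down alters the TNF-alpha reporter response to LPS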 (primary screen)
System: human THP-1 monocytic leukaemia cells, TNF dual-luciferase reporter clone, PMA-differentiated to macrophage-like cells
Reagent: siRNA pool against human genes, 50 nM
Duration: LPS for 4 h, given about 3 days after siRNA transfection
Challenge: bacterial LPS (TLR4 ligand), 10 ng/ml
Read-out: 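TNF firefly reporter luminescence divided by renilla, normalised to the plate median, then turned into a robust z-score for each replicate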
Reading the numbers: TNF reporter robust z-score: higher = stronger TNF reporter response to LPS
Hit rule: 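a well is active when its z-score exceeds 2.8 or falls below -1.5; control wells carry no call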
The whole screen tested about 18,000 reagents; shown is an unselected part. Of all reagents, about 2,900 (16%) are marked active. 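Calls are made per well; low scores hint the gene aids the LPS response, high scores that it dampens it.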 Repeated entries: four replicate wells of each siRNA pool. Reagent sequences are not shown.

RBM8A: TNF reporter robust z-score = -1.58; outcome = active
RBM8A: TNF reporter robust z-score = -0.83; outcome = inactive
RBM8A: TNF reporter robust z-score = -1.42; outcome = inactive
RBM8A: TNF reporter robust z-score = -1.64; outcome = active
C7: TNF reporter robust z-score = -1.17; outcome = inactive
C7: TNF reporter robust z-score = 0.37; outcome = inactive
C7: TNF reporter robust z-score = -0.31; outcome = inactive
C7: TNF reporter robust z-score = 0.4; outcome = inactive
SLC22A23: TNF reporter robust z-score = 0.41; outcome = inactive
SLC22A23: TNF reporter robust z-score = -0.21; outcome = inactive
SLC22A23: TNF reporter robust z-score = -0.1; outcome = inactive
SLC22A23: TNF reporter robust z-score = 0.28; outcome = inactive
PPIG: TNF reporter robust z-score = -0.92; outcome = inactive
PPIG: TNF reporter robust z-score = -0.38; outcome = inactive
PPIG: TNF reporter robust z-score = -0.29; outcome = inactive
PPIG: TNF reporter robust z-score = 0.11; outcome = inactive
JMJD8: TNF reporter robust z-score = 0.84; outcome = inactive
JMJD8: TNF reporter robust z-score = 0.05; outcome = inactive
JMJD8: TNF reporter robust z-score = 0.72; outcome = inactive
JMJD8: TNF reporter robust z-score = 0.22; outcome = inactive
TNNC2: TNF reporter robust z-score = -0.43; outcome = inactive
TNNC2: TNF reporter robust z-score = 0.74; outcome = inactive
TNNC2: TNF reporter robust z-score = -0.17; outcome = inactive
TNNC2: TNF reporter robust z-score = 1.64; outcome = inactive

The list goes on (3 carried over from the part before).
TNNC2: TNF reporter robust z-score = 0.74; outcome = inactive
TNNC2: TNF reporter robust z-score = -0.17; outcome = inactive
TNNC2: TNF reporter robust z-score = 1.64; outcome = inactive
ECHDC2: TNF reporter robust z-score = -1.14; outcome = inactive
ECHDC2: TNF reporter robust z-score = -0.68; outcome = inactive
ECHDC2: TNF reporter robust z-score = -1.15; outcome = inactive
ECHDC2: TNF reporter robust z-score = -0.48; outcome = inactive
CD33: TNF reporter robust z-score = -0.04; outcome = inactive
CD33: TNF reporter robust z-score = -0.73; outcome = inactive
CD33: TNF reporter robust z-score = -0.93; outcome = inactive
CD33: TNF reporter robust z-score = -0.58; outcome = inactive
PSMB9: TNF reporter robust z-score = -0.91; outcome = inactive
PSMB9: TNF reporter robust z-score = -0.33; outcome = inactive
PSMB9: TNF reporter robust z-score = -0.98; outcome = inactive
PSMB9: TNF reporter robust z-score = 0.4; outcome = inactive
NEK5: TNF reporter robust z-score = -0.35; outcome = inactive
NEK5: TNF reporter robust z-score = 1.01; outcome = inactive
NEK5: TNF reporter robust z-score = 1.88; outcome = inactive
NEK5: TNF reporter robust z-score = 2.2; outcome = inactive
XKR6: TNF reporter robust z-score = 1.91; outcome = inactive
XKR6: TNF reporter robust z-score = 2.65; outcome = inactive
XKR6: TNF reporter robust z-score = 1.05; outcome = inactive
XKR6: TNF reporter robust z-score = 0.54; outcome = inactive
CHI3L2: TNF reporter robust z-score = -0.69; outcome = inactive
CHI3L2: TNF reporter robust z-score = -0.11; outcome = inactive
CHI3L2: TNF reporter robust z-score = -0.54; outcome = inactive
CHI3L2: TNF reporter robust z-score = -0.61; outcome = inactive
